Assay results reported in paper PMC2866665.
Results are given in words; binding and its absence hold for the method and conditions named. Some binding calls cover weakened binding; strength is not graded here.

Biological target: T1, Rad23 ortholog in the fly (Drosophila melanogaster) (UniProt Q9V3W9)
T1 sequence: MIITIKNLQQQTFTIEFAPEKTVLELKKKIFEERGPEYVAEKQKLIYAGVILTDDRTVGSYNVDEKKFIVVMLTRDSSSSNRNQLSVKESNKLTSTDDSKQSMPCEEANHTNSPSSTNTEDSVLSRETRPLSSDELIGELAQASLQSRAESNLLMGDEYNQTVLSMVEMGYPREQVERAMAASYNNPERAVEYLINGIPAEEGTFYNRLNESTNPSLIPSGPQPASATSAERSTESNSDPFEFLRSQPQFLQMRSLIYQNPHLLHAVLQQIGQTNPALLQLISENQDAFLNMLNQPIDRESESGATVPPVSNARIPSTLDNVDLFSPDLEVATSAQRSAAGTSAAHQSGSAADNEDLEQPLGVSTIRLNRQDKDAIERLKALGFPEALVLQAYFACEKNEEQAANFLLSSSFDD
Assay: two-hybrid; yeast two-hybrid assay; data not shown; bait and prey not told

B1: PNGase-like (Pngl), Drosophila melanogaster PNGase ortholog (protein, UniProt Q7KRR5 1-631)
chain: MVDINLECVHQIEPKTRSAGQQQQERGLKEAYLEAVRILLVLLENILAQPENSMFRTIRQENKAIKEKLLSLPGCERLLEAIGFVRAPSSNAYTLPTEVSLQQVKKYRDALSERRTAWLNGTVSKSPPQQSTTSTTPLFIKPSVEYRHRIAFPRVLRTNNNFLQSLELYSDAVMQYEDNLLLATGRTLIPVEELTEMASEKLIDIQDQIASGERQEKEPCVRDLLLVELVNWFNTQFFQWVNNIPCRVCGSEESRLRRTEREGDIRVEVTVCCGQESKFYRYNDISQLLVSRKGRCGEYANCFTFLCRALDYDARIVHSHFDHVWTEVYSEAQMRWLHVDPSENVIDSPLMYQHGWKRHIDYILAYSRDDIQDVTWRYTNDHQKILHLRKLCGEKEMVQTLDAIRAKRRQNCTADRKLFLSQRNMYEVIGLTLERKPTENELKGRSSGSLSWRQSRGEHTFTNIFVFNLSATELQKRQLNVRYSCATDTYERYAKEGEHITILDSYKTWQKAQFSSKNIFRKVERDWKMAYLARLEDTDCGEIAWTFDFSKTNLKVKSYNLVFETKTFGDGKISVTVDATDGSASVENATGFKIVAKLTGGKGDVAWQHTQLFRQSLNSRDYPFDLQVQLH
B1 was tested, and the binding was “binds”.
